Measurements as given in the supplement of paper PMC6411743.
± gives the standard deviation of the averaged measurements. The list shows a part of the results.

Chains of the proteins cited; added tags and fusions are not shown. Lines headed by an entry give the natural chain unless they say otherwise; changes in a name come on top.
UniProt P12956: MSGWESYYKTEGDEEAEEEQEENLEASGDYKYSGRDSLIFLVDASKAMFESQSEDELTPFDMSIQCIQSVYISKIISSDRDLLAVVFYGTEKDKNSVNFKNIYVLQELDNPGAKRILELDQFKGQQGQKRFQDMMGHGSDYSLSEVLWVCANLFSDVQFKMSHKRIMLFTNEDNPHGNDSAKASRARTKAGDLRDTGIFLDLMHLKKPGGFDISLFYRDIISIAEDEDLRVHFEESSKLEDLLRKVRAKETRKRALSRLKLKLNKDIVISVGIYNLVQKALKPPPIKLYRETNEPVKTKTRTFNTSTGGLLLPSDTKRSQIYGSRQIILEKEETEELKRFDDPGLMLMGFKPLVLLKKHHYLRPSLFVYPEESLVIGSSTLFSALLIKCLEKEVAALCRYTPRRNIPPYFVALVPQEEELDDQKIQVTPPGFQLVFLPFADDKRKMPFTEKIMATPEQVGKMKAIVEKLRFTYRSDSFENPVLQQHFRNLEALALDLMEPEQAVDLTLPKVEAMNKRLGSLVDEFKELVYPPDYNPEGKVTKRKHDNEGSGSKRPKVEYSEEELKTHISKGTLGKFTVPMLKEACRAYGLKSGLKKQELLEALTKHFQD
UniProt P19532: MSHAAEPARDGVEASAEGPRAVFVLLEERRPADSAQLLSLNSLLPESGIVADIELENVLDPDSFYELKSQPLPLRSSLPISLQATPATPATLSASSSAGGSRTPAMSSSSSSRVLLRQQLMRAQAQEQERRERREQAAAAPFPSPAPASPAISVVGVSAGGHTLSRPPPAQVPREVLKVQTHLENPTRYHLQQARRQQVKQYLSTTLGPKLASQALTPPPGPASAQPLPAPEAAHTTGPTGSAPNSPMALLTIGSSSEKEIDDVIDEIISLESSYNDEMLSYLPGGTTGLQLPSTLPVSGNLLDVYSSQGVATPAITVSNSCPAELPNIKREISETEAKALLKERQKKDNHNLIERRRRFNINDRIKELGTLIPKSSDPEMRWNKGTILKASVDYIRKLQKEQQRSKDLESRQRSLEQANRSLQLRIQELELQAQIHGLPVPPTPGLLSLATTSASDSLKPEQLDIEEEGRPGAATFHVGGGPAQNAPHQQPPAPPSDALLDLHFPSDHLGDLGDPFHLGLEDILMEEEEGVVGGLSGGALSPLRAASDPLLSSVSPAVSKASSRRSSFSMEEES
UniProt P08559, whole entry: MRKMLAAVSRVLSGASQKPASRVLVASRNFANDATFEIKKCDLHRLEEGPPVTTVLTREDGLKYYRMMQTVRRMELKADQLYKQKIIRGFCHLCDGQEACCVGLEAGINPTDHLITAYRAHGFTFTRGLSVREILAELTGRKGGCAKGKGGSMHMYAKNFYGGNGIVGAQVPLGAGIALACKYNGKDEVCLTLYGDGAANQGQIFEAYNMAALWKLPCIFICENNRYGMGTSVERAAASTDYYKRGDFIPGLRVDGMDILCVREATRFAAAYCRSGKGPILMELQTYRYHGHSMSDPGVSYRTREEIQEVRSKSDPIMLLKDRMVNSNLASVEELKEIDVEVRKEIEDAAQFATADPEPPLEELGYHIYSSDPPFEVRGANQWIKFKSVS
UniProt P20700: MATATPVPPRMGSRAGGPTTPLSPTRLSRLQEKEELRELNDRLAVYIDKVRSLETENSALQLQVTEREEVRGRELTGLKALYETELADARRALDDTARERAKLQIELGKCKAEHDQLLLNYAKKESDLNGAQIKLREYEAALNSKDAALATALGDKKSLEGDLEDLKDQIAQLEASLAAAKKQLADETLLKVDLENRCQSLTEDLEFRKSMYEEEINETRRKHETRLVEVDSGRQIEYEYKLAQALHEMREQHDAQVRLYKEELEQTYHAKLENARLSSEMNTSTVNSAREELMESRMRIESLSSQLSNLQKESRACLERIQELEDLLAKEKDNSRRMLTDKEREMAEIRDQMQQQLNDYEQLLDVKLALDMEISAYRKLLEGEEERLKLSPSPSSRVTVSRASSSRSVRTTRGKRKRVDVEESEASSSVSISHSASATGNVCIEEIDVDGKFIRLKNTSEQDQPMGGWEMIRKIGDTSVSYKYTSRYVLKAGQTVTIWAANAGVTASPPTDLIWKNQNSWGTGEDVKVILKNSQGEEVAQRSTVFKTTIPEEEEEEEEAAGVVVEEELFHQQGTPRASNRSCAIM

Compound: Nc1nc2c(ncn2[C@@H]2O[C@H](COP(=O)(O)OP(=O)(O)OP(=O)(O)O)[C@@H](O)[C@H]2O)c(=O)[nH]1 [guanosine triphosphate]
Assay: NP40-soluble protein abundance relative to vehicle (solubility fold change) (ratio); higher = more soluble protein in presence of GTP
Method: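 Solubility proteome profiling in Jurkat crude lysate. Lysate was treated with Mg-GTP (0.1-10 mM) for 10 min at room temperature and 3 min at 37 °C, then solubilised with 0.8% NP40 and benzonase, followed by ultracentrifugation. Proteins were quantified by TMT10 LC-MS/MS; the value is the NP40-soluble abundance relative to the NP40-processed vehicle, from 3 independent experiments.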

Row | Target | NP40-soluble protein abundance (concentration: 0.1mM) | NP40-soluble protein abundance (concentration: 0.5mM) | NP40-soluble protein abundance (concentration: 1mM) | NP40-soluble protein abundance (concentration: 2mM) | NP40-soluble protein abundance (concentration: 4mM) | NP40-soluble protein abundance (concentration: 6mM) | NP40-soluble protein abundance (concentration: 8mM) | NP40-soluble protein abundance (concentration: 10mM)
1 | XRCC6 (UniProt P12956) | 0.961 ± 0.045 | 1 ± 0.065 | 0.931 ± 0.056 | 0.929 ± 0.038 | 0.933 ± 0.061 | 0.919 ± 0.058 | 0.903 ± 0.062 | 0.887 ± 0.029
2 | TFE3 (UniProt P19532) | 1.04 ± 0.046 | 0.9136 ± 0.0012 | 1.07 ± 0.015 | 1.03 ± 0.035 | 1.01 ± 0.036 | 1.01 ± 0.011 | 0.899 ± 0.16 | 1.07 ± 0.054
3 | CTSB (UniProt P07858) | 0.979 ± 0.036 | 1.01 ± 0.021 | 0.992 ± 0.029 | 0.954 ± 0.0097 | 0.962 ± 0.036 | 0.973 ± 0.011 | 0.983 ± 0.016 | 0.958 ± 0.03
4 | UniProt P08559 and related entries | 1.04 ± 0.11 | 1.09 ± 0.15 | 1.05 ± 0.19 | 1.12 ± 0.22 | 1.17 ± 0.2 | 1.16 ± 0.24 | 1.14 ± 0.21 | 1.06 ± 0.2
5 | LMNB1 (UniProt P20700) | 0.906 ± 0.079 | 0.954 ± 0.075 | 0.935 ± 0.069 | 0.871 ± 0.086 | 0.827 ± 0.059 | 0.845 ± 0.069 | 0.849 ± 0.032 | 0.836 ± 0.054
